Assay results reported in the supplement of paper PMC10338343.
± gives the standard deviation. The list shows a part of the results, in another mix than the full data. The uncertainty is large for many entries.

Experiments:
[1] = tested on: MILI (PIWIL2) piRISC loaded with piRNA #1 (26 nt); experiment: pre-steady-state target cleavage rate (min^-1); MIWI and MILI are mouse PIWI proteins and EfPiwi is from a freshwater sponge; tags in brackets are library labels; higher = faster piRNA-guided slicing of the target; conditions: guide: piRNA #1 5'p-UGAGGUAGUAGGUUGUAUAGUAUCCA; auxiliary factor: 500 nM mouse GTSF1
Procedure, shortened: (§1)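 Cleave-'n-Seq reactions paired 0.1 nM transcribed, DNA-blocked target RNA library with 1 nM active affinity-purified piRISC holding one synthetic guide, plus or minus 500 nM GTSF1 partner protein, in HEPES–potassium acetate buffer at 33 °C for 0–8 or 0–960 min. After sequencing of uncleaved targets and normalisation to depth and weakly complementary targets, the pre-steady-state cleavage rate was taken from a burst-and-steady-state fit. Three trials were pooled, and k3 was capped at 0.0001 min^-1.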

[2] = tested on: MIWI (PIWIL1) piRISC loaded with piRNA #1 (30 nt); experiment: as above; conditions: guide: piRNA #1 5'p-UGAGGUAGUAGGUUGUAUAGUAUCCAGAGG; auxiliary factor: 500 nM mouse GTSF1
Procedure, shortened: as §1

Row | Sequence | pre-steady-state target cleavage rate [1] | pre-steady-state target cleavage rate [2]
1 | GGAGACCUAACUAUAAACCUACUACCUCA | 0.00232 ± 0.0058 | 0.000842 ± 0.01
2 | GGAGACCUAUGAUAUCAACCUACUACCUA | 0.000794 ± 0.0061 | 0.000148 ± 0.019
3 | GGAGACCAUACUAUACAACCCUACUACCUCA | 0.00216 ± 0.0042 | 0.000744 ± 0.0065
4 | GGAGAGGAUACUAUACAACCUAGUAGCUCA | 0.000691 ± 0.0084 | 0.00102 ± 0.0049
5 | GGAGACCUAUGAUUACAACCAACAACCUCA | 0.00249 ± 0.0038 | 0.000665 ± 0.0052
6 | GGAGACCUAUGAUAACACCCUACUACCUCA | 0.00217 ± 0.0037 | 0.00232 ± 0.0037
7 | GGAGACCUAUGAUAUCAACCUUCUACCACA | 0.000228 ± 0.014 | 0.000167 ± 0.014
8 | GGAGACCUAUGAUAACAAUCCUACUACCUCA | 0.000428 ± 0.021 | 0.000139 ± 0.027
9 | GGAGAGGAUACUAUACGAACCUACUACCUCA | 0.00135 ± 0.0045 | 0.00126 ± 0.006
10 | GGAGACCUAUGAAUACAACCUGACUACCUCA | 0.00187 ± 0.0044 | 0.000176 ± 0.013
11 | GGAGACCUAUGAUAUCAACCUACUACUUCA | 0.00116 ± 0.0041 | 0.000326 ± 0.0051
12 | GGAGACCUAUGUAUACAACCAUGUACCUCA | 0.00173 ± 0.0035 | 0.000336 ± 0.0051
13 | GGAGACCUAUGAUAUGUUGCUAGUACCACA | 0.000389 ± 0.015 | 0.000567 ± 0.0072
14 | GGAGACCUAUGAUAACAACCUACUCCCUCA | 0.00249 ± 0.0033 | 0.000344 ± 0.0073
15 | GGAGACCUAUGAAUACAAACCUACUACCUCA | 0.00105 ± 0.0043 | 0.000176 ± 0.014
16 | GGAGACCUAUGAAUACAACCUCUACCUCA | 0.000537 ± 0.012 | 0.000543 ± 0.0067
17 | GGAGUGGAUACUAUACUAACCUACUACCUCA | 0.00162 ± 0.0047 | 0.00042 ± 0.019
18 | GGAGACCUAUGAAUAGUUCCUACUACCUCA | 0.000153 ± 0.02 | 0.000107 ± 0.015
19 | GGAGUGCAUACUAUACAACCUACUACCUGA | 0.09 ± 0.011 | 0.513 ± 0.077
20 | GGAGACCUAACUUUACAACCAACUACCUCA | 0.00215 ± 0.0081 | 0.000363 ± 0.018
21 | GGAGACCUAUGAUAUGUUCCUUCUACGUCA | 0.00016 ± 0.022 | 0.000335 ± 0.011
22 | GGAGACCUAUGUAUACAACCUCUACCUCA | 0.00061 ± 0.011 | 0.000261 ± 0.011
23 | GGAGACCUAUGAUAUGUUGCUAAUACCUCA | 0.000535 ± 0.013 | 0.000794 ± 0.009
24 | GGAGACCUAUGAUAACAACCUACUUGCUCA | 0.00218 ± 0.0031 | 0.000652 ± 0.0077
25 | GGAGACCUAUGAUUACAAGCUUCUACCUCA | 0.00347 ± 0.0023 | 0.00127 ± 0.0045
26 | GGAGACCUAUGAAUACAACCUUACUACCUCA | 0.00189 ± 0.0031 | 0.000265 ± 0.0057
27 | GGAGACCUAUGUAUACAACUACUACCUCA | 0.00206 ± 0.0037 | 0.00116 ± 0.004

Row | Sequence | pre-steady-state target cleavage rate [1] | pre-steady-state target cleavage rate [2]
28 | GGAGACCUAUGAUAUGUACGAUCUACCUCA | 0.00014 ± 0.037 | 0.000253 ± 0.012
29 | GGAGACCUAUGAUAUCAACCUACUACCCA | 0.000132 ± 0.02 | 0.000123 ± 0.017
30 | GGAGACCUAUGAUAUCAACCAACUUCCUCA | 0.000442 ± 0.011 | 0.000251 ± 0.011
31 | GGAGAGGAUACUAUACAAUCCUACUACCUCA | 0.00247 ± 0.0029 | 0.000922 ± 0.0081
32 | GGAGACCUAUGUAUACAAGCCUACUACCUCA | 0.000525 ± 0.012 | 0.000524 ± 0.0088
33 | GGAGACCUAUGAUAUCAACCUACUACUCUCA | 0.00108 ± 0.0039 | 0.000319 ± 0.0043
34 | GGAGACCUAUGAUUCCAACCUACUACCUCA | 0.0018 ± 0.0051 | 0.000261 ± 0.014
35 | GGAGACCUAUGAAUACAUGGUACUACCUCA | 0.000293 ± 0.013 | 0.000688 ± 0.0083
36 | GGAGACCUAUGAUUACAACCUAGAUCCUCA | 0.00125 ± 0.0056 | 0.000497 ± 0.0055
37 | GGAGACCUAUGAUUACAACCUACUACUCA | 0.000869 ± 0.0057 | 0.000242 ± 0.009
38 | GGAGACCUAUGAUAUGUACCCACUACCUCA | 0.000318 ± 0.011 | 0.00023 ± 0.015
39 | GGAGACCUAUGAUAUCUACCUUCUACCUCA | 0.000303 ± 0.0088 | 0.000216 ± 0.01
40 | GGAGACGAUACUAUACAACCGUACUACCUCA | 0.0039 ± 0.0039 | 0.000519 ± 0.015
41 | GGAGACCUAUGAUUACAACCUUCUACCACA | 0.00204 ± 0.0026 | 0.000393 ± 0.0048
42 | GGAGACCUAUGAUUACAACCUAUACCUCA | 0.000992 ± 0.0074 | 0.000126 ± 0.022
43 | GGAGACCUAUGAAUACAACCUACUACCAGA | 0.00225 ± 0.003 | 0.000199 ± 0.012
44 | GGAGACCUAUGAUUACAACCUACAUGCUCA | 0.00131 ± 0.005 | 0.000116 ± 0.019
45 | GGAGACCUAUGAAUACAACCACUACCUCA | 0.000606 ± 0.011 | 0.000635 ± 0.0073
46 | GGAGACCUAUGAUAUGUACCUACUACAUCA | 0.000441 ± 0.013 | 0.000541 ± 0.0084
47 | GGAGACCUAUGAUAUCAACCUACUACGAGA [g5:g15:cont:t1A] | 0.000311 ± 0.017 | 0.000346 ± 0.02
48 | GGAGACCUAUGUAUACAACGUUCUACCUCA | 0.00392 ± 0.0018 | 0.00134 ± 0.0031
49 | GGAGACCUAUGAUAUGUUGGUACAACCUCA | 0.000344 ± 0.0086 | 0.00034 ± 0.0084
50 | GGAGACCUAACUAUUCAACCAACUACCUCA | 0.00204 ± 0.0083 | 0.00312 ± 0.0058
51 | GGAGACCUAUGUAUACAACCACUACCUCA | 0.000661 ± 0.0086 | 0.000926 ± 0.0045
52 | GGAGAGGAUACUAUACUAACCUACUACCUCA | 0.0025 ± 0.0043 | 0.00122 ± 0.0074
53 | GGAGACCUAUGAUAUGUUCCUUACUACCUCA | 0.000147 ± 0.017 | 0.000223 ± 0.0075
54 | GGAGACCUAUGAUUACAACCUACGUACCUCA | 0.00348 ± 0.0039 | 0.00128 ± 0.0042

Some of the entries above in another layout.
Row,Sequence,pre-steady-state target cleavage rate [1],pre-steady-state target cleavage rate [2]
28,GGAGACCUAUGAUAUGUACGAUCUACCUCA,0.00014 ± 0.037,0.000253 ± 0.012
29,GGAGACCUAUGAUAUCAACCUACUACCCA,0.000132 ± 0.02,0.000123 ± 0.017
30,GGAGACCUAUGAUAUCAACCAACUUCCUCA,0.000442 ± 0.011,0.000251 ± 0.011
31,GGAGAGGAUACUAUACAAUCCUACUACCUCA,0.00247 ± 0.0029,0.000922 ± 0.0081
34,GGAGACCUAUGAUUCCAACCUACUACCUCA,0.0018 ± 0.0051,0.000261 ± 0.014
38,GGAGACCUAUGAUAUGUACCCACUACCUCA,0.000318 ± 0.011,0.00023 ± 0.015
39,GGAGACCUAUGAUAUCUACCUUCUACCUCA,0.000303 ± 0.0088,0.000216 ± 0.01
41,GGAGACCUAUGAUUACAACCUUCUACCACA,0.00204 ± 0.0026,0.000393 ± 0.0048
43,GGAGACCUAUGAAUACAACCUACUACCAGA,0.00225 ± 0.003,0.000199 ± 0.012
44,GGAGACCUAUGAUUACAACCUACAUGCUCA,0.00131 ± 0.005,0.000116 ± 0.019
45,GGAGACCUAUGAAUACAACCACUACCUCA,0.000606 ± 0.011,0.000635 ± 0.0073
46,GGAGACCUAUGAUAUGUACCUACUACAUCA,0.000441 ± 0.013,0.000541 ± 0.0084
51,GGAGACCUAUGUAUACAACCACUACCUCA,0.000661 ± 0.0086,0.000926 ± 0.0045
53,GGAGACCUAUGAUAUGUUCCUUACUACCUCA,0.000147 ± 0.017,0.000223 ± 0.0075
54,GGAGACCUAUGAUUACAACCUACGUACCUCA,0.00348 ± 0.0039,0.00128 ± 0.0042
